Experimental data: PubChem BioAssay AID1053208 (Peter MacCallum Cancer Centre, 2014)
Screen: 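Genes whose silencing cuts survival of bone tumour cells only with doxorubicin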 (primary screen). Cells: mouse osteosarcoma cells, early-passage culture from an engineered mouse model of fibroblastic bone tumour. Knock-down reagent: siRNA pool against mouse genes, 40 nM. Duration: about 120 h (48 h before drug, then 72 h with drug). Challenge: doxorubicin 100 nM for 72 h, roughly 30-40% inhibitory dose. Measurement: 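Luminescent ATP signal taken as viability with or without 100 nM doxorubicin for 72 h; mean of two wells set against non-targeting siRNA and turned into robust z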. Reading the numbers: viability z-score with doxorubicin: higher = more viable cells under doxorubicin; viability z-score without drug: higher = more viable cells with knock-down alone. Hit rule: 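Called active if knock-down leaves viability unchanged without drug (z within -2 to 2) but lowers it with doxorubicin (z at or under -2)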.
The whole screen tested about 17,000 reagents; shown is an unselected part. Of all reagents, 788 (4.7%) are marked active. 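Calls rest on z-score classes alone; an extra cut-off of viability at most 70% of control was not applied to them.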 Entries without a mark were called inactive. Some reagents were tested in more than one well and are listed for each. Further read-outs or replicates are left out here.

Wsb1 — combined z-score class = no change with or without drug; viability z-score with doxorubicin = 0.34; viability z-score without drug = -0.17
Pth1r — combined z-score class = no change with or without drug; viability z-score with doxorubicin = 0; viability z-score without drug = -1.52
Zhx1 — combined z-score class = high cell count with and without drug; viability z-score with doxorubicin = 2.59; viability z-score without drug = 5.73
Adss2 — combined z-score class = no change with or without drug; viability z-score with doxorubicin = -0.22; viability z-score without drug = -1.18
Ilkap — combined z-score class = no change with or without drug; viability z-score with doxorubicin = -0.9; viability z-score without drug = -0.84
Ilkap — combined z-score class = no change with or without drug; viability z-score with doxorubicin = -0.9; viability z-score without drug = 0.34
Vmn1r56 — combined z-score class = no change with or without drug; viability z-score with doxorubicin = 0.11; viability z-score without drug = -0.34
Or14j9 — combined z-score class = low cell count without drug only; viability z-score with doxorubicin = -1.12; viability z-score without drug = -2.19
Tars1 — combined z-score class = no change with or without drug; viability z-score with doxorubicin = 1.01; viability z-score without drug = -0.17

Laid out differently: results already given
Zhx1
- combined z-score class: high cell count with and without drug
- viability z-score with doxorubicin: 2.59
- viability z-score without drug: 5.73

Adss2
- combined z-score class: no change with or without drug
- viability z-score with doxorubicin: -0.22
- viability z-score without drug: -1.18

The results go on:
Rttn — combined z-score class = high cell count with and without drug; viability z-score with doxorubicin = 2.92; viability z-score without drug = 4.05
Lacc1 — combined z-score class = no change with or without drug; viability z-score with doxorubicin = -0.9; viability z-score without drug = -0.17
Svbp — combined z-score class = no change with or without drug; viability z-score with doxorubicin = 0.67; viability z-score without drug = 0.84
Defa4 — combined z-score class = no change with or without drug; viability z-score with doxorubicin = -0.22; viability z-score without drug = 0.84
Il20 — combined z-score class = no change with or without drug; viability z-score with doxorubicin = 0.45; viability z-score without drug = 0.17
Edil3 — combined z-score class = no change with or without drug; viability z-score with doxorubicin = -0.56; viability z-score without drug = 0.67
Psmb3 — combined z-score class = low cell count with and without drug; viability z-score with doxorubicin = -5.62; viability z-score without drug = -3.37
Nr1i2 — combined z-score class = no change with or without drug; viability z-score with doxorubicin = 1.35; viability z-score without drug = 1.85
Fbxl4 — combined z-score class = no change with or without drug; viability z-score with doxorubicin = 1.46; viability z-score without drug = 1.01
Trim28 — combined z-score class = no change with or without drug; viability z-score with doxorubicin = -0.79; viability z-score without drug = -0.17
